Reference: ChEMBL document CHEMBL2069234, “Aristoxazole analogues. Conversion of 8-nitro-1-naphthoic acid to 2-methylnaphtho[1,2-d]oxazole-9-carboxylic acid: comments on the chemical mechanism of formation of DNA adducts by the aristolochic acids” (J Nat Prod, 2012)

Experiments:
[1] = Drug conversion assessed as formation of oxazole derivatives in presence of Zn/HOAc; assay type: physicochemical
Salmonella typhimurium = assay: Mutagenicity in Salmonella typhimurium TA100; assay type: toxicity, organism-based; settings: salmonella enterica subsp. enterica serovar typhimurium

- Drug metabolism [1]: Active
SMILES: O=C(O)c1cccc2cccc([N+](=O)[O-])c12
- Activity (Salmonella typhimurium): Toxic
